Results are given in words; binding and its absence hold for the method and conditions named. Binding seen in cells or lysates may run through a third protein. Some binding calls cover weakened binding; strength is not graded here.
Experiments:
TCL1A-Myc [1] = molecular target: TCL1A-Myc (UniProt P56279); experiment: condition: only cells treated with AUY-922 (HSP90 inhibitor); co-IP; TCL1A-Myc-transfected HEK293 cells treated with DMSO or AUY-922 as indicated; lysates immunoprecipitated with anti-Myc antibody; blot with anti-Myc and anti-HSP90A
TCL1A-Myc [2] = molecular target: TCL1A-Myc (UniProt P56279); experiment: co-IP; HEK293 cells transfected with pME18-myc/TCL1 for 24 h; NP40 lysis buffer (50 mM Tris-HCl pH 8.0, 5 mM EDTA, 150 mM NaCl, 1% NP-40, 1 mM PMSF); immunoprecipitation with 1 ug anti-Myc antibody or mouse IgG for 16 h; blot with anti-HSP90A

Protein sequences, listed by entry. Tags and fused reporters are not part of them.
UniProt P56279: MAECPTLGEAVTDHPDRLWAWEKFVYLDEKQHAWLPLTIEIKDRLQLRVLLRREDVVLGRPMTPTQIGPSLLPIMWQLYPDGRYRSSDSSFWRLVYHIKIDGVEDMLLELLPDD

For HSP90A (from UniProt P07900 1-732), the binding (TCL1A-Myc [1]) was “no binding” and the binding (TCL1A-Myc [2]) was “binds”.
